Laboratory results reported in patent US12729225B2, “Non-canonical SWI/SNF complex and uses thereof” (Dana-Farber Cancer Institute, Inc., priority 2018, dated 2026).

Tested on: mSWI/SNF complexes
Experiment: mSWI/SNF complex purification with HA-tagged baits and mass spectrometry (peptide counts)
Set-up: species or system human
[1] = 293_HA-BRD7: HA-BRD7 bait purification, total peptide count per co-purified protein
[2] = 293_HA-BRD7: HA-BRD7 bait purification, unique peptide count per co-purified protein

B1: LONP1 (protein, UniProt P36776 68-959, looked up)
Lon protease homolog, …: FWEASSRGGGAFSGGEDASEGGAEEGAGGAGGSAGAGEGPVITALTPMTIPDVFPHLPLIAITRNPVFPRFIKIIEVKNKKLVELLRRKVRLAQPYVGVFLKRDDSNESDVVESLDEIYHTGTFAQIHEMQDLGDKLRMIVMGHRRVHISRQLEVEPEEPEAENKHKPRRKSKRGKKEAEDELSARHPAELAMEPTPELPAEVLMVEVENVVHEDFQVTEEVKALTAEIVKTIRDIIALNPLYRESVLQMMQAGQRVVDNPIYLSDMGAALTGAESHELQDVLEETNIPKRLYKALSLLKKEFELSKLQQRLGREVEEKIKQTHRKYLLQEQLKIIKKELGLEKDDKDAIEEKFRERLKELVVPKHVMDVVDEELSKLGLLDNHSSEFNVTRNYLDWLTSIPWGKYSNENLDLARAQAVLEEDHYGMEDVKKRILEFIAVSQLRGSTQGKILCFYGPPGVGKTSIARSIARALNREYFRFSVGGMTDVAEIKGHRRTYVGAMPGKIIQCLKKTKTENPLILIDEVDKIGRGYQGDPSSALLELLDPEQNANFLDHYLDVPVDLSKVLFICTANVTDTIPEPLRDRMEMINVSGYVAQEKLAIAERYLVPQARALCGLDESKAKLSSDVLTLLIKQYCRESGVRNLQKQVEKVLRKSAYKIVSGEAESVEVTPENLQDFVGKPVFTVERMYDVTPPGVVMGLAWTAMGGSTLFVETSLRRPQDKDAKGDKDGSLEVTGQLGEVMKESARIAYTFARAFLMQHAPANDYLVTSHIHLHVPEGATPKDGPSAGCTIVTALLSLAMGRPVRQNLAMTGEVSLTGKILPVGGIKEKTIAAKRAGVTCIVLPAENKKDFYDLAAFITEGLEVHFVEHYREIFDIAFPDEQAEALAVER
Total [1]: 7 | Unique [2]: 7

B2: RBMX2 (protein, UniProt Q9Y388 1-322, looked up)
RNA-binding motif protein, …: MNPLTKVKLINELNEREVQLGVADKVSWHSEYKDSAWIFLGGLPYELTEGDIICVFSQYGEIVNINLVRDKKTGKSKGFCFLCYEDQRSTILAVDNFNGIKIKGRTIRVDHVSNYRAPKDSEEIDDVTRQLQEKGCGARTPSPSLSESSEDEKPTKKHKKDKKEKKKKKKEKEKADREVQAEQPSSSSPRRKTVKEKDDTGPKKHSSKNSERAQKSEPREGQKLPKSRTAYSGGAEDLERELKKEKPKHEHKSSSRREAREEKTRIRDRGRSSDAHSSWYNGRSEGRSYRSRSRSRDKSHRHKRARRSRERESSNPSDRWRH
Total [1]: 7 | Unique [2]: 6

B3: HNRNPF (protein, UniProt P52597 1-415, looked up)
Heterogeneous nuclear …: MMLGPEGGEGFVVKLRGLPWSCSVEDVQNFLSDCTIHDGAAGVHFIYTREGRQSGEAFVELGSEDDVKMALKKDRESMGHRYIEVFKSHRTEMDWVLKHSGPNSADSANDGFVRLRGLPFGCTKEEIVQFFSGLEIVPNGITLPVDPEGKITGEAFVQFASQELAEKALGKHKERIGHRYIEVFKSSQEEVRSYSDPPLKFMSVQRPGPYDRPGTARRYIGIVKQAGLERMRPGAYSTGYGGYEEYSGLSDGYGFTTDLFGRDLSYCLSGMYDHRYGDSEFTVQSTTGHCVHMRGLPYKATENDIYNFFSPLNPVRVHIEIGPDGRVTGEADVEFATHEEAVAAMSKDRANMQHRYIELFLNSTTGASNGAYSSQVMQGMGVSAAQATYSGLESQSVSGCYGAGYSGQNSMGGYD
Total [1]: 6 | Unique [2]: 6

B4: L2HGDH (protein, UniProt Q9H9P8 52-463, looked up)
L-2-hydroxyglutarate …: VIVGGGIVGLASARALILRHPSLSIGVLEKEKDLAVHQTGHNSGVIHSGIYYKPESLKAKLCVQGAALLYEYCQQKGISYKQCGKLIVAVEQEEIPRLQALYEKGLQNGVPGLRLIQQEDIKKKEPYCRGLMAIDCPHTGIVDYRQVALSFAQDFQEAGGSVLTNFEVKGIEMAKESPSRSIDGMQYPIVIKNTKGEEIRCQYVVTCAGLYSDRISELSGCTPDPRIVPFRGDYLLLKPEKCYLVKGNIYPVPDSRFPFLGVHFTPRMDGSIWLGPNAVLAFKREGYRPFDFSATDVMDIIINSGLIKLASQNFSYGVTEMYKACFLGATVKYLQKFIPEITISDILRGPAGVRAQALDRDGNLVEDFVFDAGVGDIGNRILHVRNAPSPAATSSIAISGMIADEVQQRFEL
Total [1]: 6 | Unique [2]: 6

B5: SMARCD2 (protein)
chain: MSGRGAGGFPLPPLSPGGGAVAAALGAPPPPAGPGMLPGPALRGPGPAGGVGGPGAAAFRPMGPAGPAAQYQRPGMSPGNRMPMAGLQVGPPAGSPFGAAAPLRPGMPPTMMDPFRKRLLVPQAQPPMPAQRRGLKRRKMADKVLPQRIRELVPESQAYMDLLAFERKLDQTIARKRMEIQEAIKKPLTQKRKLRIYISNTFSPSKAEGDSAGTAGTPGGTPAGDKVASWELRVEGKLLDDPSKQKRKFSSFFKSLVIELDKELYGPDNHLVEWHRMPTTQETDGFQVKRPGDLNVKCTLLLMLDHQPPQYKLDPRLARLLGVHTQTRAAIMQALWLYIKHNQLQDGHEREYINCNRYFRQIFSCGRLRFSEIPMKLAGLLQHPDPIVINHVISVDPNDQKKTACYDIDVEVDDPLKAQMSNFLASTTNQQEIASLDVKIHETIESINQLKTQRDFMLSFSTDPQDFIQEWLRSQRRDLKIITDVIGNPEEERRAAFYHQPWAQEAVGRHIFAKVQQRRQELEQVLGIRLT
Total [1]: 59 | Unique [2]: 34 | Total (293_HA-DPF2 purification, total peptides): 51 | Unique (293_HA-DPF2 purification, unique peptides): 32

B6: ALDH18A1 (protein, UniProt P54886 1-795, looked up)
Delta-1-pyrroline-5-carboxylat …: MLSQVYRCGFQPFNQHLLPWVKCTTVFRSHCIQPSVIRHVRSWSNIPFITVPLSRTHGKSFAHRSELKHAKRIVVKLGSAVVTRGDECGLALGRLASIVEQVSVLQNQGREMMLVTSGAVAFGKQRLRHEILLSQSVRQALHSGQNQLKEMAIPVLEARACAAAGQSGLMALYEAMFTQYSICAAQILVTNLDFHDEQKRRNLNGTLHELLRMNIVPIVNTNDAVVPPAEPNSDLQGVNVISVKDNDSLAARLAVEMKTDLLIVLSDVEGLFDSPPGSDDAKLIDIFYPGDQQSVTFGTKSRVGMGGMEAKVKAALWALQGGTSVVIANGTHPKVSGHVITDIVEGKKVGTFFSEVKPAGPTVEQQGEMARSGGRMLATLEPEQRAEIIHHLADLLTDQRDEILLANKKDLEEAEGRLAAPLLKRLSLSTSKLNSLAIGLRQIAASSQDSVGRVLRRTRIAKNLELEQVTVPIGVLLVIFESRPDCLPQVAALAIASGNGLLLKGGKEAAHSNRILHLLTQEALSIHGVKEAVQLVNTREEVEDLCRLDKMIDLIIPRGSSQLVRDIQKAAKGIPVMGHSEGICHMYVDSEASVDKVTRLVRDSKCEYPAACNALETLLIHRDLLRTPLFDQIIDMLRVEQVKIHAGPKFASYLTFSPSEVKSLRTEYGDLELCIEVVDNVQDAIDHIHKYGSSHTDVIVTEDENTAEFFLQHVDSACVFWNASTRFSDGYRFGLGAEVGISTSRIHARGPVGLEGLLTTKWLLRGKDHVVSDFSEHGSLKYLHENLPIPQRNTN
Total [1]: 6 | Unique [2]: 6

B7: SFXN1 (protein, UniProt Q9H9B4 2-322, looked up)
Sideroflexin-1: SGELPPNINIKEPRWDQSTFIGRANHFFTVTDPRNILLTNEQLESARKIVHDYRQGIVPPGLTENELWRAKYIYDSAFHPDTGEKMILIGRMSAQVPMNMTITGCMMTFYRTTPAVLFWQWINQSFNAVVNYTNRSGDAPLTVNELGTAYVSATTGAVATALGLNALTKHVSPLIGRFVPFAAVAAANCINIPLMRQRELKVGIPVTDENGNRLGESANAAKQAITQVVVSRILMAAPGMAIPPFIMNTLEKKAFLKRFPWMSAPIQVGLVGFCLVFATPLCCALFPQKSSMSVTSLEAELQAKIQESHPELRRVYFNKGL
Total [1]: 6 | Unique [2]: 6

B8: ETFA (protein, UniProt P13804 20-333, looked up)
Electron transfer …: QSTLVIAEHANDSLAPITLNTITAATRLGGEVSCLVAGTKCDKVAQDLCKVAGIAKVLVAQHDVYKGLLPEELTPLILATQKQFNYTHICAGASAFGKNLLPRVAAKLEVAPISDIIAIKSPDTFVRTIYAGNALCTVKCDEKVKVFSVRGTSFDAAATSGGSASSEKASSTSPVEISEWLDQKLTKSDRPELTGAKVVVSGGRGLKSGENFKLLYDLADQLHAAVGASRAAVDAGFVPNDMQVGQTGKIVAPELYIAVGISGAIQHLAGMKDSKTIVAINKDPEAPIFQVADYGIVADLFKVVPEMTEILKKK
Total [1]: 6 | Unique [2]: 6

B9: HSPD1 (protein, UniProt P10809 27-573, looked up)
60 kDa heat shock protein, …: AKDVKFGADARALMLQGVDLLADAVAVTMGPKGRTVIIEQSWGSPKVTKDGVTVAKSIDLKDKYKNIGAKLVQDVANNTNEEAGDGTTTATVLARSIAKEGFEKISKGANPVEIRRGVMLAVDAVIAELKKQSKPVTTPEEIAQVATISANGDKEIGNIISDAMKKVGRKGVITVKDGKTLNDELEIIEGMKFDRGYISPYFINTSKGQKCEFQDAYVLLSEKKISSIQSIVPALEIANAHRKPLVIIAEDVDGEALSTLVLNRLKVGLQVVAVKAPGFGDNRKNQLKDMAIATGGAVFGEEGLTLNLEDVQPHDLGKVGEVIVTKDDAMLLKGKGDKAQIEKRIQEIIEQLDVTTSEYEKEKLNERLAKLSDGVAVLKVGGTSDVEVNEKKDRVTDALNATRAAVEEGIVLGGGCALLRCIPALDSLTPANEDQKIGIEIIKRTLKIPAMTIAKNAGVEGSLIVEKIMQSSSEVGYDAMAGDFVNMVEKGIIDPTKVVRTALLDAAGVASLLTTAEVVVTEIPKEEKDPGMGAMGGMGGGMGGGMF
Total [1]: 42 | Unique [2]: 34

B10: IKZF4 (protein, UniProt Q9H2S9 1-585, looked up)
Zinc finger protein Eos: MHTPPALPRRFQGGGRVRTPGSHRQGKDNLERDPSGGCVPDFLPQAQDSNHFIMESLFCESSGDSSLEKEFLGAPVGPSVSTPNSQHSSPSRSLSANSIKVEMYSDEESSRLLGPDERLLEKDDSVIVEDSLSEPLGYCDGSGPEPHSPGGIRLPNGKLKCDVCGMVCIGPNVLMVHKRSHTGERPFHCNQCGASFTQKGNLLRHIKLHSGEKPFKCPFCNYACRRRDALTGHLRTHSVSSPTVGKPYKCNYCGRSYKQQSTLEEHKERCHNYLQSLSTEAQALAGQPGDEIRDLEMVPDSMLHSSSERPTFIDRLANSLTKRKRSTPQKFVGEKQMRFSLSDLPYDVNSGGYEKDVELVAHHSLEPGFGSSLAFVGAEHLRPLRLPPTNCISELTPVISSVYTQMQPLPGRLELPGSREAGEGPEDLADGGPLLYRPRGPLTDPGASPSNGCQDSTDTESNHEDRVAGVVSLPQGPPPQPPPTIVVGRHSPAYAKEDPKPQEGLLRGTPGPSKEVLRVVGESGEPVKAFKCEHCRILFLDHVMFTIHMGCHGFRDPFECNICGYHSQDRYEFSSHIVRGEHKVG
Total [1]: 8 | Unique [2]: 6
